Laboratory results taken from US9981050B2 (Institute of Nuclear Energy Research, Atomic Energy …, priority 2015, dated 2018).

Assay: peptide synthesis
Settings: conjugation step

NOTA-c(RGDyk)-cys-6-ahx-GE11
conjugation yield: 43%
